Measured values taken from article PMC8316719.
These are yes or no findings as the source states them, for the method shown. In cells and extracts the contact can be indirect. Some entries that bind do so weakly or less than the wild type.

Sequences of proteins named here, by UniProt entry; tags and fusion partners are left off.
UniProt Q8C170: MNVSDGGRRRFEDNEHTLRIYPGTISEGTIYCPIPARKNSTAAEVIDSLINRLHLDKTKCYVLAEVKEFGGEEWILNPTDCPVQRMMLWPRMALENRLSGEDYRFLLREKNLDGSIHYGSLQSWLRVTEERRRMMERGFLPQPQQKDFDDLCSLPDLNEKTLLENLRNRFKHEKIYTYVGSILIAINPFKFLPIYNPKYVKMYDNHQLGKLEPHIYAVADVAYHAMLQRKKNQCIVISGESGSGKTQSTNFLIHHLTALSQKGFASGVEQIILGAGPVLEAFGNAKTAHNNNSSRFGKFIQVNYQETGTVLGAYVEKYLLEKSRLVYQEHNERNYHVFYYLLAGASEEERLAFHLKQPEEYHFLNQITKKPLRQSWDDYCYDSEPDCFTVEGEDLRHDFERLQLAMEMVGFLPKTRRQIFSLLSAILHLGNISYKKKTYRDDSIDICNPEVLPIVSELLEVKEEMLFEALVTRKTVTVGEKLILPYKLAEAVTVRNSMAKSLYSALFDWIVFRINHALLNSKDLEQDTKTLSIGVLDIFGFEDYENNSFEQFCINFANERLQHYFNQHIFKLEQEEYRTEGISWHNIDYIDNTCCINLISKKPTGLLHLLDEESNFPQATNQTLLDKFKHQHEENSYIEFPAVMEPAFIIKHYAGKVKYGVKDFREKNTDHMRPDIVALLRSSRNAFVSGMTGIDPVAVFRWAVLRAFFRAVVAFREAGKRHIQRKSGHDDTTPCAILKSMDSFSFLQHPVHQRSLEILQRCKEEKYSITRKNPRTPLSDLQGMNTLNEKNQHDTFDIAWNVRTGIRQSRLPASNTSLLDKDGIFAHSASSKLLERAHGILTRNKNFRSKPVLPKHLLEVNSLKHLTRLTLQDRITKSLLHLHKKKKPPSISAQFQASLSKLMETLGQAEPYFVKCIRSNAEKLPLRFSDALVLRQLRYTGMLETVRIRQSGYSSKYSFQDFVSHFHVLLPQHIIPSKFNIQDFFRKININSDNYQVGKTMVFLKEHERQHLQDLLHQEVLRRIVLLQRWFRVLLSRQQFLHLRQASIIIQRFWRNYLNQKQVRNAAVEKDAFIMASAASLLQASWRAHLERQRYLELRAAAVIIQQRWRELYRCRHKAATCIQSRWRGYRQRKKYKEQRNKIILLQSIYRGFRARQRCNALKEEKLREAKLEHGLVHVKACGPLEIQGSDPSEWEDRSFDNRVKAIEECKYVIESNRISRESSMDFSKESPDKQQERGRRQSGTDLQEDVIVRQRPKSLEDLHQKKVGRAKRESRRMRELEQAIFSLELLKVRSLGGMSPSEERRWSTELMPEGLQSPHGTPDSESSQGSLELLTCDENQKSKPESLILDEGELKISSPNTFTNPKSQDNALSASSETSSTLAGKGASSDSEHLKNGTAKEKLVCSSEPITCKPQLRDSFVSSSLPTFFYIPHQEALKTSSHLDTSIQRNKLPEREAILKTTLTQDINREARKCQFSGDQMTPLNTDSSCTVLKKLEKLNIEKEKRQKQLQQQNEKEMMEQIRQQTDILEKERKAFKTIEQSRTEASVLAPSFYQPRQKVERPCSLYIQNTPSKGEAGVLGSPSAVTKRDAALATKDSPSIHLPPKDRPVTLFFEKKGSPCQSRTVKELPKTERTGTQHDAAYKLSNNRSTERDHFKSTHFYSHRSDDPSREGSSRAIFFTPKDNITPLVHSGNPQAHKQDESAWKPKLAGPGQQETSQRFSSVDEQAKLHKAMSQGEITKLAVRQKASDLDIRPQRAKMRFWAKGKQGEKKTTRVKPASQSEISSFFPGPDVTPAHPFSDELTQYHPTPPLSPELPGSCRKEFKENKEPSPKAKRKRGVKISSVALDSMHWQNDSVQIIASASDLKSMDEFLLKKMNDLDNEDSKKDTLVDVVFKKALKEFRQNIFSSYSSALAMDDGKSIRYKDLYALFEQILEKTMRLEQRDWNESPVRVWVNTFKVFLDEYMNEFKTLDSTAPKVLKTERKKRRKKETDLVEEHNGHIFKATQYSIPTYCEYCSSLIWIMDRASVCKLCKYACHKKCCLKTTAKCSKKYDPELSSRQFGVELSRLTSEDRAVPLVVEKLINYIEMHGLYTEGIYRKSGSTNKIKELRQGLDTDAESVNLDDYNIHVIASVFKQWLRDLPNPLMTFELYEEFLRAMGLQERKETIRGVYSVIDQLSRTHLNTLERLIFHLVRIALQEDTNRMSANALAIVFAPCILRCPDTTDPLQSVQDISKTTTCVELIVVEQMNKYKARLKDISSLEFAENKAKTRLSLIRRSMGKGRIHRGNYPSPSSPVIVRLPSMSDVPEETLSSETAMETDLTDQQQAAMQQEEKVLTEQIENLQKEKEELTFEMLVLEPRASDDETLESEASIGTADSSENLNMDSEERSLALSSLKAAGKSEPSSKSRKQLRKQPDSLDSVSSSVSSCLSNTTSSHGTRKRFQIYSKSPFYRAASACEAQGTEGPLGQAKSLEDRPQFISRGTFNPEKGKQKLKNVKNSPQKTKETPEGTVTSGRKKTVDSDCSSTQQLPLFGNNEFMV
UniProt Q9QUI0: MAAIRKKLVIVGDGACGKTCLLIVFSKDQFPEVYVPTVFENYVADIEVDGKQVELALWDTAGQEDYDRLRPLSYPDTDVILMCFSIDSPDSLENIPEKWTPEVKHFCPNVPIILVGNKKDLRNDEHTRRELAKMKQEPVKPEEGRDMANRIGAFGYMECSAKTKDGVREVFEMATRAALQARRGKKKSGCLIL

Molecular target: Myosin 9A (mouse (endogenous in immortalized mouse podocytes)) (UniProt Q8C170)
Experiment: co-IP; immortalized mouse podocyte lysates (1% NP-40, 1% Triton X, 50 mM Hepes, 150 mM NaCl, 0.1 mM EDTA, 0.1 mM Neocuproine), pre-cleared with protein A agarose, anti-MYO9A rabbit polyclonal antibody at 4°C, agarose beads overnight, washed with PBS + protease inhibitors, western blot for RhoA and Myo9A

RhoA (from UniProt Q9QUI0 1-193)
binding: binds
